Measurements as given in publication PMC11061317.
No constants are given. Whether binding was seen depends on the method and setting. Binding seen in cells or lysates may run through a third protein. Here binding means that the protein was enriched with, or labelled near, the bait; the list need not be complete. A no says only that the protein was not detected with the bait.

Biological target: PhastID-tagged Rheb (UniProt Q15382)
Test: proximity labelling; PhastID-Rheb stably expressed in HeLa 229 cells; serum starved 16 h, then 0.9 uM insulin plus 50 uM biotin for 15 min or 1 h; RIPA whole cell lysate, streptavidin magnetic bead pull-down, LC-MS/MS, triplicates; PhastID alone and biotin alone as controls

B1: TCTP (protein, UniProt P13693 1-172)
chain: MIIYRDLISHDEMFSDIYKIREIADGLCLEVEGKMVSRTEGNIDDSLIGGNASAEGPEGEGTESTVITGVDIVMNHHLQETSFTKEAYKKYIKDYMKSIKGKLEEQRPERVKPFMTGAAEQIKHILANFKNYQFFIGENMNPDGMVALLDYREDGVTPYMIFFKDGLEMEKC
In the case of B1, the binding is reported as “no binding”.
